These are literature values, as cited in paper PMC11637191, “The pH-dependence of efflux ratios determined with bidirectional transport assays across cellular monolayers” (International Journal of Pharmaceutics: X, 2024).

In this series the test system is MDCK-MDR1 cells. Particulars: with inhibitor, pH 7.4 iso-method; ref Obradovic et al. (2007); cited from earlier work.

Regarding `CN1CCC[C@@H]1CCO[C@](C)(c1ccccc1)c1ccc(Cl)cc1` [Clemastine], the “Papp, inhibitor” value was 49.5 ×10⁻⁶ cm/s.
